Literature values, collected in patent US7070814B2, “Bioavailability / bioefficacy enhancing activity of Cuminum cyminum and extracts and fractions thereof” (Council of Scientific and Industrial Research, priority 2002, dated 2006).
For at least one compound, name, drawing or mass did not settle the structure.

Conditions: in combination with piperine; at par with the standard dose (450 mg); cited from earlier work

CO[C@H]1/C=C/O[C@@]2(C)Oc3c(C)c(O)c4c(O)c(c(/C=N/N5CCN(C)CC5)c(O)c4c3C2=O)NC(=O)/C(C)=C\C=C\[C@H](C)[C@H](O)[C@@H](C)[C@@H](O)[C@@H](C)[C@H](OC(C)=O)[C@@H]1C [Rifampicin]
reduction of the dose of rifampicin while retaining therapeutic efficacy: about 50%
